Measurements reported in PubChem BioAssay AID1508588 (Peter MacCallum Cancer Centre, 2020)
The deposit covers about 18,000 reagents; below is a part drawn at random. 790 of all reagents (4.4%) were called active. 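Calls rest on a combination of fold-change classes in drug and vehicle arms, not all shown here.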 Some reagents were tested in more than one well and are listed for each. Reagent sequences are not shown.

Screen: 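Which gene losses make BRAF-mutant melanoma cells more responsive to vemurafenib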 (primary screen)
System: human WM266.4 melanoma cells (BRAF V600 mutant)
Knock-down reagent: siRNA pool against human genes, 40 nM
Duration: 96 h from transfection to read-out
Treatment: vemurafenib 300 nM (about IC25), added 48 h after transfection, for 48 h; comparison arm got DMSO vehicle only
Read-out: 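Ratios to non-targeting siRNA for cell gain, counted as DAPI nuclei after minus before drug and averaged over two replicates, and for absorbance-read medium lactate per cell; both binned into fold-change classes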
Reading the numbers: cell gain with vemurafenib: higher = more cell gain than with non-targeting siRNA; lactate per cell with vemurafenib: higher = more lactate made per cell
Hit rule: 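Enhancement is called by pairing each knock-down's vehicle-arm and drug-arm fold-change classes for viability or glycolysis; which class combinations qualify is not given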
Meaning of the calls: active = enhances vemurafenib effect; inactive = no enhancement seen

no.	target gene	cell gain with vemurafenib	lactate per cell with vemurafenib	activity call
1	DNTT	0.38	0.62	inactive
2	WNT10B	0.09	0.52	active
3	CREB5	1.04	0.97	inactive
4	RIC1	0.88	0.88	inactive
5	ZNF827	0.83	0.6	inactive
6	ATP6V1C1	0.26	0.2	inactive
7	MAP3K2	0.65	1.34	inactive
8	CYP4F8	0.82	0.34	inactive
9	KRTAP6-1	0.71	0.56	inactive
10	TGFB1I1	0.32	1.28	inactive
11	SEBOX	0.95	0.52	inactive
12	PGAM4	0.39	1.62	inactive
13	CLCC1	1.16	0.72	inactive
14	SCRN2	0.53	1.07	inactive
15	SLX1A	0.78	0.88	inactive
16	HACE1	0.31	0.82	inactive
17	EFHC2	0.71	0.86	inactive
18	SEC24A	1.47	0.86	inactive
19	ARHGAP9	0.22	1.75	inactive
20	RPP25	0.21	1.04	inactive
21	SPG7	0.61	0.84	inactive
22	TMEM94	0.39	1.3	inactive
23	DSCR4	0.73	0.72	inactive
24	CYP2B6	1.05	0.4	inactive
25	BHLHE40	0.76	1.21	inactive
26	HS6ST1	0.49	1.92	inactive
27	ABLIM1	0.57	1.03	inactive
28	SEC61A2	0.68	0.68	inactive
29	TPTE	0.8	0.8	inactive
30	TPTE	0.69	1.12	inactive
31	TFCP2L1	0.44	1.06	inactive
32	RBM18	1	0.72	inactive
33	BTNL3	0.62	0.67	inactive
34	JPH3	0.43	2.22	inactive
35	GPX7	0.37	1.42	inactive
36	IDH3A	0.36	0.57	inactive
37	BLTP3A	0.67	0.55	inactive
38	SHQ1	0.96	0.71	inactive
39	CORO1C	0.41	0.64	inactive
40	OR52I2	0.56	0.49	inactive
41	XKR7	0.61	1.01	inactive
42	TNFAIP3	0.96	0.64	inactive
43	TNFAIP3	0.49	0.97	inactive
44	FAM24B	0.54	1.54	inactive
45	EEIG1	0.93	1.14	inactive
46	GPRIN1	0.69	0.68	inactive
47	SHANK3	0.57	1.4	inactive
48	CORO1B	0.32	0.41	inactive
49	ZNF280D	0.79	1.38	inactive
50	SNX19	0.22	1.38	inactive
51	SLC35B2	0.73	1	inactive
52	RMP24	0.61	1.04	inactive
53	LINC00482	0.71	0.72	inactive
54	SIGIRR	0.96	0.61	inactive
55	FCHSD2	1.07	0.51	inactive
56	DCTN5	0.41	1.72	inactive
57	KCNT2	0.57	0.91	inactive
58	TRPM5	1.17	0.52	inactive
59	HSPB3	0.53	1.5	inactive
60	TRIM46	1.06	0.76	inactive
61	RGL2	0.4	0.84	inactive
62	CHRFAM7A	0.93	0.58	inactive
63	PCED1B	0.24	1.62	inactive
64	AAMDC	0.33	0.99	inactive
65	TBC1D19	0.55	0.93	inactive
66	UBE2J1	0.47	1.98	inactive
67	MAP3K15	0.63	0.54	inactive
68	STXBP2	0.76	1.12	inactive
69	SYT8	0.36	0.71	inactive
70	KLKB1	0.69	0.78	inactive
71	ARL14EP	0.55	0.33	inactive
72	OR2T6	0.81	0.76	inactive
73	RAP1B	0.58	0.74	inactive
74	OR8B12	0.7	0.51	inactive
75	HAMP	0.78	1.98	inactive
76	FAM216A	0.28	1.14	inactive
77	RNF10	0.24	1.58	inactive
78	MUC13	0.58	1.4	inactive
79	GAP43	0.71	0.25	inactive
80	FUT8	0.8	0.8	inactive
81	BSCL2	0.66	0.45	active
82	PRELID3A	0.58	0.64	inactive
83	GPC4	0.53	0.9	inactive
84	TPPP2	0.53	1.25	inactive
85	ADM	0.74	0.98	inactive
86	HERC6	0.21	1.98	inactive
87	GRTP1	0.26	1.92	inactive
88	EVX1	0.64	1.05	inactive
89	ANXA8L1	0.5	1.52	inactive
90	AQR	0.05	0.97	inactive
91	MAML1	0.39	0.66	inactive
92	VGLL3	0.51	0.94	inactive
93	KRT83	0.57	2.58	inactive
94	LRP4	0.7	0.85	inactive
95	LYPD6B	0.91	0.8	inactive
96	PKD2	0.39	0.97	inactive
97	TUSC2	1.04	0.52	inactive
98	TAS2R10	0.34	1.07	inactive
99	MT3	0.72	0.56	inactive
100	VPS26A	0.52	0.88	inactive
101	UBE2L3	0.42	0.5	inactive
102	C2CD4A	0.23	1.16	inactive
103	H1-10	0.25	2.06	inactive
104	CDHR3	0.43	0.82	inactive
105	LUZP1	0.59	0.3	inactive
106	MTA3	0.97	0.38	inactive
107	RBM7	-0.03	0.82	active

9 entries from above, ordered by “lactate per cell with vemurafenib”, high to low.
target gene	cell gain with vemurafenib	lactate per cell with vemurafenib	activity call
UBE2J1	0.47	1.98	inactive
PCED1B	0.24	1.62	inactive
STXBP2	0.76	1.12	inactive
AAMDC	0.33	0.99	inactive
TBC1D19	0.55	0.93	inactive
RGL2	0.4	0.84	inactive
SYT8	0.36	0.71	inactive
CHRFAM7A	0.93	0.58	inactive
MAP3K15	0.63	0.54	inactive
